Experimental findings from article PMC5192218 are described below.

By UniProt entry, the sequences of proteins in these tests, tags left out.
UniProt Q9QUI0: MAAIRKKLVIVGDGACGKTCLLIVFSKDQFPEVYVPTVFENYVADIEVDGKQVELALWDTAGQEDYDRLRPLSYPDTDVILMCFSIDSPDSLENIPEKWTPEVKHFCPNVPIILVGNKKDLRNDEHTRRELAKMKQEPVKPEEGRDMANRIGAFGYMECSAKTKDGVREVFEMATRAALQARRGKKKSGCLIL

These are yes or no findings as the source states them, for the method shown. Binding seen in cells or lysates may run through a third protein. Some results given as binding are weak or reduced against the parent protein; the word gives no strength.

This experiment has as its target T1, p120-catenin (endogenous, co-immunoprecipitation with RhoA) (UniProt P30999).
T1 sequence: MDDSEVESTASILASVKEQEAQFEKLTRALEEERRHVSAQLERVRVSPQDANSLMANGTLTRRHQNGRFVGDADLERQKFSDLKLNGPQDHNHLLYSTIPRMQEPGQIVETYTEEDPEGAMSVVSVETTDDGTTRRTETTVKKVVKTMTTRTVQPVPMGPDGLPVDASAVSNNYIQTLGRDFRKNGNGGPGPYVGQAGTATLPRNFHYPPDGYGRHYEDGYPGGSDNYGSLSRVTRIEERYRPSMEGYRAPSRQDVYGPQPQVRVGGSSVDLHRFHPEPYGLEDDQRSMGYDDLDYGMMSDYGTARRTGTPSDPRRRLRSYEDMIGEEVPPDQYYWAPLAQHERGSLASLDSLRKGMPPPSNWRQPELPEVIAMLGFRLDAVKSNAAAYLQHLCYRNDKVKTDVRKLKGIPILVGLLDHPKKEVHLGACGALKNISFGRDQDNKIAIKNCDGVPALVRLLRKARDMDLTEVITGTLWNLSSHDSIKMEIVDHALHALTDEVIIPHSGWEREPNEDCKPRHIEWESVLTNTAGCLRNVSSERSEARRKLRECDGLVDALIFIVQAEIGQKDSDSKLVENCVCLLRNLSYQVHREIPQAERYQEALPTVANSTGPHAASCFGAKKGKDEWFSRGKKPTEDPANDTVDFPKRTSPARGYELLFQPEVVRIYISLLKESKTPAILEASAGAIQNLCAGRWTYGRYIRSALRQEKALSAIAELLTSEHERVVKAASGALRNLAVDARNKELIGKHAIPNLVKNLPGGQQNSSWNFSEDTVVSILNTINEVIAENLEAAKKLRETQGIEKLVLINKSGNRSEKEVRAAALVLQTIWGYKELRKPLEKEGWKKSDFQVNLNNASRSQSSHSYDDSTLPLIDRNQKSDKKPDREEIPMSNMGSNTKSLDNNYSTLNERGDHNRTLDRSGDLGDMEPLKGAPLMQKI
Kind of experiment: co-IP; co-immunoprecipitation of endogenous p120 and RhoA, detected by western blotting; cells and precipitating antibody not stated. (In general: Immunoblotting shows a protein as a band on a membrane.)

Consider “RhoA (endogenous, co-immunoprecipitation with p120) (from UniProt Q9QUI0 1-193)”, for which the binding result is on record as “binds”.
